Results from US8101773B2, “Hydroxy methyl phenyl pyrazolyl urea compounds useful in the treatment of cancer” (Bayer Healthcare LLC, priority 2006, dated 2012).
Counter-ions that a name gives are not always drawn. Some entries share one result that the patent states for a list of compounds.

Target: BaF3-Abl(M351T) (Homo sapiens, UniProt P00519, M351T, cells depend on it)
Experiment: Cell proliferation assay, BaF3-Abl(M351T)
Conditions: read-out: IC50 in the BaF3-Abl(M351T) proliferation assay

| SMILES | GI50 [µM] |
| --- | --- |
| CNC(=O)c1cc(Oc2ccc(NC(=O)Nc3cc(C(C)(C)C)nn3-c3cccc(COC(=O)[C@H](N)C(C)C)c3)c(F)c2)ccn1 [Example 9, 3-(3-tert-Butyl-5-{[(2-fluoro-4-{[2-(methylcarbamoyl)pyridin-4-yl]oxy}phenyl)-carbamoyl]amino}-1H-pyrazol-1-yl)benzyl D-valinate] | < 10 |
| CNC(=O)c1cc(Oc2ccc(NC(=O)Nc3cc(C(C)(C)C)nn3-c3cccc(COC(=O)CCC(=O)O)c3)c(F)c2)ccn1 [Example 14, 4-{[3-(3-tert-Butyl-5-{[(2-fluoro-4-{[2-(methylcarbamoyl)pyridin-4-yl]oxy}-phenyl)carbamoyl]amino}-1H-pyrazol-1-yl)benzyl]oxy}-4-oxobutanoic acid] | < 10 |

Results, then the compound that gave them:

| GI50 [µM] | SMILES |
| --- | --- |
| < 10 | CNC(=O)c1cc(Oc2ccc(NC(=O)Nc3cc(C(C)(C)C)nn3-c3cccc(COC(C)=O)c3)c(F)c2)ccn1 [Example 11, 3-(3-tert-Butyl-5-{[(2-fluoro-4-{[2-(methylcarbamoyl)pyridin-4-yl]oxy}-phenyl)carbamoyl]amino}-1H-pyrazol-1-yl)benzyl acetate] |
| < 10 | CNC(=O)c1cc(Oc2ccc(NC(=O)Nc3cc(C(C)(C)C)nn3-c3cccc(COP(=O)(OC(C)(C)C)OC(C)(C)C)c3)c(F)c2)ccn1 [Example 12, Di-tert-butyl 3-(3-tert-butyl-5-{[(2-fluoro-4-{[2-(methylcarbamoyl)pyridin-4-yl]oxy}phenyl)carbamoyl]amino}-1H-pyrazol-1-yl)benzyl phosphate] |
| < 10 | CNC(=O)c1cc(Oc2ccc(NC(=O)Nc3cc(C(C)(C)C)nn3-c3cccc(COP(=O)(O)O)c3)c(F)c2)ccn1 [Example 13, 3-(3-tert-Butyl-5-{[(2-fluoro-4-{[2-(methylcarbamoyl)pyridin-4-yl]oxy}-phenyl)carbamoyl]amino}-1H-pyrazol-1-yl)benzyl dihydrogen phosphate dihydrochloride] |
